# Tested on: B16F10 mouse melanoma
# Assay: MTT assay cytotoxicity
# Assay type: cell-based
# Conditions: B16F10, 24 hours
# Protocol: HaCaT human epidermal keratinocytes, # ATCC PCS-200-011) were incubated using Dulbecco's modified Eagle's medium (DMEM, # DMEM-HPA, Capricorn Scientific, Ebsdorfergrund, Germany) in the conditions of 37° C. and 5% CO2. NIH3T3 mouse embryo fibroblasts (# KCLB 21658), RAW264.7 murine macrophages (preosteoclast cell line, # KCLB 40071), HCT116 human colon cancer cells (# KCLB 10247), PC3 human prostate adenocarcinoma cells (# KCLB 21435), HT1080 human fibrosarcoma cells (# KCLB 1121), and B16F10 mouse malignant melanoma cells (# KCLB 80008) were purchased from the Korean Cell Line Bank, and incubated using DMEM in the conditions of 37° C. and 5% C02.
# The compound isolated from Osmunda japonica, prepared in section 1 of <Example 1>, was investigated for cytotoxicity using MTT assay.
# MTT assay was as follows.
# Cells were incubated at 1×10^3 cells/well in a 96-well plate containing DMEM with 10% fetal bovine serum (FBS) at 5% CO2 and 37° C., and then osmundacetone was added to the cell medium, followed by incubation for 24 hours. Thereafter, 100 μL of MTT (0.5 mg/ml PBS) was administered, followed by incubation for 2 hours. […] After incubation for 10 minutes, the absorbance was measured using a microplate reader (SPCTRA MAX 340PC, Molecular Devices, USA) at 570 nm. The absorbance is an indicator showing the number of living cells, and calculated by the following equation. […]
smiles,measurement,value
"NCCCC(O)(P(=O)(O)O)P(=O)(O)O [Fosamax, alendronate, reference compound]",LD50 (MTT assay),">5,000 μM"
